Experiment [1] deals with T1, heme oxygenase-1 (HO-1), endogenous (human (endogenous in Bel7402)) (UniProt P09601).
T1 sequence: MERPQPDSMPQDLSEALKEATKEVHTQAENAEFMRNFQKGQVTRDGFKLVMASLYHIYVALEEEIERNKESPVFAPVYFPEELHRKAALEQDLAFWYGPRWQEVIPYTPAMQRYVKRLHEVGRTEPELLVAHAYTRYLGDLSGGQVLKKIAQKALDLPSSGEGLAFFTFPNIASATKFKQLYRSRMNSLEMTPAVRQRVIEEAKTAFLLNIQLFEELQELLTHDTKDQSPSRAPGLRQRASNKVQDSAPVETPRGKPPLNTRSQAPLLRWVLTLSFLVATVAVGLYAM
Put plainly: co-IP; Bel7402 cell lysate, endogenous proteins; IP with anti-14-3-3ζ or anti-HO-1, blot for 14–3-3ζ and HO-1.

By UniProt entry, the sequences of proteins in these tests, tags left out.
UniProt P63104: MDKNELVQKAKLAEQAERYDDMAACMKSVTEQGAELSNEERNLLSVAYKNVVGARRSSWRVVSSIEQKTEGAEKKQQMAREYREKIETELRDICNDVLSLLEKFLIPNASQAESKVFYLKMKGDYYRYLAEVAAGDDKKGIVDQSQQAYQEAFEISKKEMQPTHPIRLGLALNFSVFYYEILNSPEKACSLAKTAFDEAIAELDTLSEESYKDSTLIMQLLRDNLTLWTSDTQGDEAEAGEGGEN

In experiment [2] the target is T2, FLAG-tagged full-length heme oxygenase-1 (HO-1) (human) (UniProt P09601).
T2 sequence: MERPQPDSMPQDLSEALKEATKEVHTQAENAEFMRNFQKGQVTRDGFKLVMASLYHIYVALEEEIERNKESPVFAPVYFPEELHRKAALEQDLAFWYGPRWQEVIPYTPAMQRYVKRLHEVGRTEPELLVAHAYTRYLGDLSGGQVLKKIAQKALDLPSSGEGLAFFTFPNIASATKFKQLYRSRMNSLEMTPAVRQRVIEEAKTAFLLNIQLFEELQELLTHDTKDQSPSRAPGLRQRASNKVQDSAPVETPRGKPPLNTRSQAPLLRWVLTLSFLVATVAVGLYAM
Put plainly: co-IP; whole cell lysate of HEK293 cells transfected with Flag-tagged HO-1; IP with anti-FLAG or anti-14-3-3ζ, blot for FLAG and 14–3-3ζ.

The target in experiment [3] is T3, FLAG-tagged HO-1 S8A (human) (UniProt P09601).
T3 sequence: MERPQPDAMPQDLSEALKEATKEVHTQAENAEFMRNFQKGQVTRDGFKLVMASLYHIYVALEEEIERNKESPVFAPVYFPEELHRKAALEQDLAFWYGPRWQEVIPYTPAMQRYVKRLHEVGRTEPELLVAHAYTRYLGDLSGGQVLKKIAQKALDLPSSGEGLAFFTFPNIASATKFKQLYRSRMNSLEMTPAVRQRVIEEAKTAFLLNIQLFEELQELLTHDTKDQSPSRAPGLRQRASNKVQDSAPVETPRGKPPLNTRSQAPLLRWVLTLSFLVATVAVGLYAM
Put plainly: co-IP; HEK293 cells co-transfected with Flag-tagged HO-1 (full length, point mutants or deletion mutants) and HA-14-3-3ζ; IP with anti-FLAG, immunoblot. For orientation: In western blotting, separated proteins are transferred to a membrane and probed.

Experiment [4] deals with T4, FLAG-tagged HO-1 T124A (human) (UniProt P09601).
T4 sequence: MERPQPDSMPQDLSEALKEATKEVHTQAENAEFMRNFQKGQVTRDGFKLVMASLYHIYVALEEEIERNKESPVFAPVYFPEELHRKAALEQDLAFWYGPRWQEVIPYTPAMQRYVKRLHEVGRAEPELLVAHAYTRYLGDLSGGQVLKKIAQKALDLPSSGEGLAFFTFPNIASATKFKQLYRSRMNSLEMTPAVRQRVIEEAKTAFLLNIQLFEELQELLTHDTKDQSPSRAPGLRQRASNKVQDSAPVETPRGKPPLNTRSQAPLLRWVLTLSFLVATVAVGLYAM
The description is as above.

Experiment [5] has as its target T2, FLAG-tagged full-length heme oxygenase-1 (HO-1) (human). Described as above.
For experiment [6], the target named is T5, FLAG-tagged HO-1 S247A (human) (UniProt P09601).
T5 sequence: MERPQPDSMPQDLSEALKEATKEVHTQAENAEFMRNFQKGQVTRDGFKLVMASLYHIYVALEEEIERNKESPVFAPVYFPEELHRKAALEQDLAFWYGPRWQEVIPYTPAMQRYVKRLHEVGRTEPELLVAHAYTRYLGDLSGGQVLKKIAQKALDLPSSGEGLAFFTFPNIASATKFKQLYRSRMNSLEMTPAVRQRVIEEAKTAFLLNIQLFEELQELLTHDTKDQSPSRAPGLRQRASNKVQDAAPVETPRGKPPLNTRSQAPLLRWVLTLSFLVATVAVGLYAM
Described as above.

The target in experiment [7] is T6, FLAG-tagged HO-1 S188A (human) (UniProt P09601).
T6 sequence: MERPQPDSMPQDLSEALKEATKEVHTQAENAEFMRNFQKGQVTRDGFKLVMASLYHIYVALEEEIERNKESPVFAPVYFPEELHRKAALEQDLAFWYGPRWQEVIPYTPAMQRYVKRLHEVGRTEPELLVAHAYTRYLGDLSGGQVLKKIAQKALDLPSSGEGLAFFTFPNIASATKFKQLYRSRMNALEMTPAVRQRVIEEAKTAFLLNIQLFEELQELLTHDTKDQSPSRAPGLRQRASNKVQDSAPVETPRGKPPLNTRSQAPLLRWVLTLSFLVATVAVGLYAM
The description is as above.

Experiment [8] has as its target 14–3-3ζ (endogenous) (human (endogenous in HEK293 and Bel7402)) (UniProt P63104). In words: co-IP; Bel7402 cell lysate, endogenous proteins; IP with anti-14-3-3ζ or anti-HO-1, blot for 14–3-3ζ and HO-1.

These are yes or no findings as the source states them, for the method shown. In cells and extracts the contact can be indirect. Some results given as binding are weak or reduced against the parent protein; the word gives no strength. For some assays here: Sequences can lack the tags named with a protein.

As to “14–3-3ζ (endogenous) (from UniProt P63104 1-245)”, the binding result in experiment [1] and in experiment [2] was “binds” each time.
For “HA-tagged 14–3-3ζ (from UniProt P63104 1-245)”, the binding result in experiment [3], in experiment [4], in experiment [5], in experiment [6] and in experiment [7] was “binds” throughout.

B1: heme oxygenase-1 (HO-1), endogenous (enzyme, UniProt P09601 1-288)
chain: MERPQPDSMPQDLSEALKEATKEVHTQAENAEFMRNFQKGQVTRDGFKLVMASLYHIYVALEEEIERNKESPVFAPVYFPEELHRKAALEQDLAFWYGPRWQEVIPYTPAMQRYVKRLHEVGRTEPELLVAHAYTRYLGDLSGGQVLKKIAQKALDLPSSGEGLAFFTFPNIASATKFKQLYRSRMNSLEMTPAVRQRVIEEAKTAFLLNIQLFEELQELLTHDTKDQSPSRAPGLRQRASNKVQDSAPVETPRGKPPLNTRSQAPLLRWVLTLSFLVATVAVGLYAM
In the case of B1, in experiment [8], the binding result is listed as “binds”.

The values are drawn from publication PMC6319010.
